According to patent publication US20220064255A1:
Results are given in words; binding and its absence hold for the method and conditions named. Some binding calls cover weakened binding; strength is not graded here.

Biological target: human TCRβV 6-5 on T cells (human)
Assay: flow cytometry on human CD3+ T cells, BHM1709 followed by a fluorochrome-conjugated secondary antibody

B1: BHM1709 (humanized) (antibody, V domains shown)
VH: QVQLVQSGAEVKKPGSSVKVSCKASGYSFTTYYIHWVRQAPGQGLEWMGWFFPGSGNIKYNEKFKGRVTITADTSTSTAYMELSSLRSEDTAVYYCAGSYYSYDVLDYWGQGTTVTVSS
VL: DIQMTQSPSFLSASVGDRVTITCKASQNVGINVVWHQQKPGKAPKALIYSSSHRYSGVPSRFSGSGSGTEFTLTISSLQPEDFATYFCQQFKSYPLTFGQGTKLEIK
- binding: binds
